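Human melanoma cells were exposed to two drugs together for 72 h in 1,536-well plates and read by automated microscopy after fixing and staining. Values are the share of nuclei positive for cleaved PARP as a percentage of the same share in the DMSO control: 100 is the control level, higher means more apoptosis. Every drug was used at one fixed concentration, the higher of two screened. These are primary screening values without error estimates. The marker varies much from line to line, for technical or biological reasons.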 An unselected part of the screen is shown.

Drugs:
tipifarnib (0.05 µM): Cn1cncc1[C@@](N)(c1ccc(Cl)cc1)c1ccc2c(c1)c(-c1cccc(Cl)c1)cc(=O)n2C
CX-4945 (2 µM): O=C(O)c1ccc2c(c1)nc(Nc1cccc(Cl)c1)c1ccncc12
PF-562271 (0.4 µM): CN(c1ncccc1CNc1nc(Nc2ccc3c(c2)CC(=O)N3)ncc1C(F)(F)F)S(C)(=O)=O
GW2580 (5 µM): COc1ccc(COc2ccc(Cc3cnc(N)nc3N)cc2OC)cc1
A-769662 (10 µM): N#Cc1c(O)c2c(-c3ccc(-c4ccccc4O)cc3)csc2[nH]c1=O
gemcitabine (0.002 µM): Nc1ccn([C@@H]2O[C@H](CO)[C@@H](O)C2(F)F)c(=O)n1
sorafenib (2 µM): CNC(=O)c1cc(Oc2ccc(NC(=O)Nc3ccc(Cl)c(C(F)(F)F)c3)cc2)ccn1
bexarotene (10 µM): C=C(c1ccc(C(=O)O)cc1)c1cc2c(cc1C)C(C)(C)CCC2(C)C
FH535 (5 µM): Cc1cc([N+](=O)[O-])ccc1NS(=O)(=O)c1cc(Cl)ccc1Cl

| # | Combination | UACC-62 |
|---|---|---|
| 1 | gemcitabine + tipifarnib | 116 |
| 2 | sorafenib + PF-562271 | 128 |
| 3 | A-769662 + tipifarnib | 121 |
| 4 | bexarotene + GW2580 | 166 |
| 5 | GW2580 + sorafenib | 86.4 |
| 6 | PF-562271 + GW2580 | 257 |
| 7 | CX-4945 + FH535 | 125 |
| 8 | tipifarnib + sorafenib | 151 |
| 9 | CX-4945 + PF-562271 | 204 |
| 10 | sorafenib + CX-4945 | 249 |
| 11 | CX-4945 + gemcitabine | 81.4 |
| 12 | A-769662 + FH535 | 52.7 |
| 13 | A-769662 + bexarotene | 111 |
| 14 | GW2580 + CX-4945 | 320 |
| 15 | FH535 + PF-562271 | 129 |
| 16 | sorafenib + bexarotene | 128 |
| 17 | FH535 + GW2580 | 68.8 |
| 18 | bexarotene + PF-562271 | 323 |
| 19 | FH535 + gemcitabine | 113 |
| 20 | FH535 + bexarotene | 125 |
| 21 | gemcitabine + sorafenib | 169 |
| 22 | GW2580 + gemcitabine | 120 |
| 23 | A-769662 + gemcitabine | 59.0 |
| 24 | bexarotene + tipifarnib | 153 |
| 25 | gemcitabine + PF-562271 | 134 |
| 26 | GW2580 + tipifarnib | 150 |
| 27 | GW2580 + A-769662 | 26.0 |
| 28 | gemcitabine + bexarotene | 271 |
| 29 | sorafenib + FH535 | 291 |
| 30 | CX-4945 + bexarotene | 251 |
| 31 | FH535 + tipifarnib | 55.6 |
| 32 | A-769662 + PF-562271 | 145 |
| 33 | A-769662 + sorafenib | 133 |
| 34 | PF-562271 + tipifarnib | 155 |
| 35 | A-769662 + CX-4945 | 143 |

For reference, 3 entries once more:

Combination,UACC-62
gemcitabine + sorafenib,169
FH535 + tipifarnib,55.6
CX-4945 + gemcitabine,81.4

Data from the primary screen of doi:10.1371/journal.pone.0140310, rounded.